Assay results reported in the supplement of paper PMC10849652.
The list shows a part of the results. Residues, ends and D or L forms follow the SMILES beside them. *: point of attachment. Cbz = O=C(OCc1ccccc1)*

Sequences of proteins named here, by UniProt entry; tags and fusion partners are left off. A change or cut given only in a name is not applied to a line headed by its entry.
UniProt O15084: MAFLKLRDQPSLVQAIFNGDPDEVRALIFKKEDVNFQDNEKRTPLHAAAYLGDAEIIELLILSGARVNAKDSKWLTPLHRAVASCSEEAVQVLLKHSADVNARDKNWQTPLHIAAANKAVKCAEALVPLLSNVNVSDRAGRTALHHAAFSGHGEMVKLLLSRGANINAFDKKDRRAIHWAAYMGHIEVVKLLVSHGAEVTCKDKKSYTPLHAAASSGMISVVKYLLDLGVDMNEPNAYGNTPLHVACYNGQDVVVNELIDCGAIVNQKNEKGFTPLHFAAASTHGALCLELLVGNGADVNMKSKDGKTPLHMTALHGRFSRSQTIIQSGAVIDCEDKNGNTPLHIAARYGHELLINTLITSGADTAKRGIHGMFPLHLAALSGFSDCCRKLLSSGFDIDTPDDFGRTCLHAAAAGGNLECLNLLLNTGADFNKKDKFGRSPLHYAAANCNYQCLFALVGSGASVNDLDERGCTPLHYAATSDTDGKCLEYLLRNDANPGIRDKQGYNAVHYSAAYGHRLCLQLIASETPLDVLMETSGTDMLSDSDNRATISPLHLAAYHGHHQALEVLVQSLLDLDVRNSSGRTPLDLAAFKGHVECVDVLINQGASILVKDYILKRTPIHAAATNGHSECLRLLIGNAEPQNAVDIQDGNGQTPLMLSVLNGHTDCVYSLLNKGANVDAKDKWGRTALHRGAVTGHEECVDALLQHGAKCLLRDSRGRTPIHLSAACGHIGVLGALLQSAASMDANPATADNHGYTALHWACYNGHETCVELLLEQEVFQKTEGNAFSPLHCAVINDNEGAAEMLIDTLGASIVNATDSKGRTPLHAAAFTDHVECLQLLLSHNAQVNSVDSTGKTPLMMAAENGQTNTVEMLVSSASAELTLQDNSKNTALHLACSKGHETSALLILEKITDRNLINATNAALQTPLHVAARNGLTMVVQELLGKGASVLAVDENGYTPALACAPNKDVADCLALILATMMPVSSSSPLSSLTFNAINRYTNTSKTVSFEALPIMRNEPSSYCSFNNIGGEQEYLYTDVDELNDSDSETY
UniProt Q9NW15: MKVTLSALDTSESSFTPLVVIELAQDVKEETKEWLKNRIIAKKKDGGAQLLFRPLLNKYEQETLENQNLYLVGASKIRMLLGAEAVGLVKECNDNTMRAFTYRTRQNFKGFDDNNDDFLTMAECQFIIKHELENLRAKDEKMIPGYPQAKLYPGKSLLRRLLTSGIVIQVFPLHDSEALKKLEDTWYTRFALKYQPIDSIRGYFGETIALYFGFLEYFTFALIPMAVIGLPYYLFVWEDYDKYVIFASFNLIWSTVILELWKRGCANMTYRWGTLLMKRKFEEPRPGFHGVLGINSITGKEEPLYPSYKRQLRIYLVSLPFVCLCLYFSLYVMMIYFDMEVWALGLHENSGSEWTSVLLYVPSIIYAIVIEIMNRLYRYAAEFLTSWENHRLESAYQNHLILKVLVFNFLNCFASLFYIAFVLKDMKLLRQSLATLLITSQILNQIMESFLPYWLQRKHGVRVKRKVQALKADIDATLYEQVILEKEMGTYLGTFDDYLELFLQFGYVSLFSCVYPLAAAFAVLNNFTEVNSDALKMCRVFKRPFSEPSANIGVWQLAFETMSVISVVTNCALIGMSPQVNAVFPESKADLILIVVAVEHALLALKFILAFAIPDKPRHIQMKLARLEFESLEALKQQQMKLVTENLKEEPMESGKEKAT
UniProt P02649, whole entry, looked up: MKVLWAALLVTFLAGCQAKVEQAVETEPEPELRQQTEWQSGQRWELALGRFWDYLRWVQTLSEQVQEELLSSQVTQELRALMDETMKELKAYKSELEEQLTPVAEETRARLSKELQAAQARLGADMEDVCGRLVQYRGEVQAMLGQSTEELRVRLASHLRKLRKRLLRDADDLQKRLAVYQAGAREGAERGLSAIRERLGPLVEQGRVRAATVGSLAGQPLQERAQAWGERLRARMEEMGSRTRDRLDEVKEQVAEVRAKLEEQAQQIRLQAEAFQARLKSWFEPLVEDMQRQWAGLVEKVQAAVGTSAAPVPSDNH
UniProt P61966: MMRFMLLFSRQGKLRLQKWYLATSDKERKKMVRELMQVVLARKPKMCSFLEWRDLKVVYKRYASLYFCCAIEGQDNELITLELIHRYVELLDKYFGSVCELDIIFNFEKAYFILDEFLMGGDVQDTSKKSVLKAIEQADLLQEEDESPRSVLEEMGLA
UniProt P78540: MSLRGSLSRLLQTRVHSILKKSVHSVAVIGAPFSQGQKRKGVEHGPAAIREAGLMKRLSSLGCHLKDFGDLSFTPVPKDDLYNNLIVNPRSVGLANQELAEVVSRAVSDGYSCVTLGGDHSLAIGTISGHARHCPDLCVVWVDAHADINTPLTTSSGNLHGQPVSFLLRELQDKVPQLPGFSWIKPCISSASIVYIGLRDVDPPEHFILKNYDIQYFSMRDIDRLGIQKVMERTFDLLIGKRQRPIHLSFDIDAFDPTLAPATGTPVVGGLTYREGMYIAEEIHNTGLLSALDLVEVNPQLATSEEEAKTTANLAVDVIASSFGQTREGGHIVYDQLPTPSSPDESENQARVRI
UniProt Q6UXV4: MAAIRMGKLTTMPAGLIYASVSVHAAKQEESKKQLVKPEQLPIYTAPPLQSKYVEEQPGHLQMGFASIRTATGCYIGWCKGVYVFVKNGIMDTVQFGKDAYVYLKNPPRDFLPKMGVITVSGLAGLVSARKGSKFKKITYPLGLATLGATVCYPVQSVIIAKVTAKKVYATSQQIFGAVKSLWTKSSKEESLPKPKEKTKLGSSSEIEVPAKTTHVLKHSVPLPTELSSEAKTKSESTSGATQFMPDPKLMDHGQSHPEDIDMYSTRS
UniProt Q9Y4X5: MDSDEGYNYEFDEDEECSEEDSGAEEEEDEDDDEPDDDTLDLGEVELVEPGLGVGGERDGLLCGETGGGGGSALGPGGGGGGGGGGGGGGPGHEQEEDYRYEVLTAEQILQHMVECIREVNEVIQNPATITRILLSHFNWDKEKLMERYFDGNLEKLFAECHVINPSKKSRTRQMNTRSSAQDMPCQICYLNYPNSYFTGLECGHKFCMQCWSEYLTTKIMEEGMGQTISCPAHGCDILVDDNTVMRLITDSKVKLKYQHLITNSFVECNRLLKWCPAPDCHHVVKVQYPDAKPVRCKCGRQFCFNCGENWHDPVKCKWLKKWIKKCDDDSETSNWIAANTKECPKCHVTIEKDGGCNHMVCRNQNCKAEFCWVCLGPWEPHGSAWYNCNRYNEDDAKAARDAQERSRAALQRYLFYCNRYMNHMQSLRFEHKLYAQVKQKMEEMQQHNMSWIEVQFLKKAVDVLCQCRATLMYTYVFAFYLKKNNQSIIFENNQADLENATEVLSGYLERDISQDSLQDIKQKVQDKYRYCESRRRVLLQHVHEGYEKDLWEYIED
UniProt P58335, whole entry, looked up: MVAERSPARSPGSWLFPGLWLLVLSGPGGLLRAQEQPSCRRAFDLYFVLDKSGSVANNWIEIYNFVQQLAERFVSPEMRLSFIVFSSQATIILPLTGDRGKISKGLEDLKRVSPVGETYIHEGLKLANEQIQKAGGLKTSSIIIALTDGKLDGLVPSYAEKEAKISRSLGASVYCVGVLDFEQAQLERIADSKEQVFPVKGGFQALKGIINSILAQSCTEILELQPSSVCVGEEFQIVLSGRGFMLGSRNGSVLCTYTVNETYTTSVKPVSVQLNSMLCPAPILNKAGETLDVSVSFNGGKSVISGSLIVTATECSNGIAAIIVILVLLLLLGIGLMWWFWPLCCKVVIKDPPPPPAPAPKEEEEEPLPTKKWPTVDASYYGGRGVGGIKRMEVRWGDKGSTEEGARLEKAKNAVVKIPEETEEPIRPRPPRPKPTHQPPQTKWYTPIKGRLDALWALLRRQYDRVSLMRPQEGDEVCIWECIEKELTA
UniProt P12429: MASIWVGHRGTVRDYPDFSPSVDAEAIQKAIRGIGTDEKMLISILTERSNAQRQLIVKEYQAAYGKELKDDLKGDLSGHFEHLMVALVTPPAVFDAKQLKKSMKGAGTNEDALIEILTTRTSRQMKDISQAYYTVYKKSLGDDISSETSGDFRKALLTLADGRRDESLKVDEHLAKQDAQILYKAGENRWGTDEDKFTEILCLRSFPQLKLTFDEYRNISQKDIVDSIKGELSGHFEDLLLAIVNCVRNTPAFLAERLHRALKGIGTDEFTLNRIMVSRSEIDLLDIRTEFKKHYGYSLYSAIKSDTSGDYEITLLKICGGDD
UniProt Q9BUR5: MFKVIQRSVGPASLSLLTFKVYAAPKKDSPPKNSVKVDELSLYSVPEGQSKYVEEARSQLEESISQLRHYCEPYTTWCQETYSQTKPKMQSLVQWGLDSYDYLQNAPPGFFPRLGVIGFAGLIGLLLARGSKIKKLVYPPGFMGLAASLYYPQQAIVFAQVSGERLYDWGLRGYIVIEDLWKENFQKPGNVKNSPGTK
UniProt Q9BQD7: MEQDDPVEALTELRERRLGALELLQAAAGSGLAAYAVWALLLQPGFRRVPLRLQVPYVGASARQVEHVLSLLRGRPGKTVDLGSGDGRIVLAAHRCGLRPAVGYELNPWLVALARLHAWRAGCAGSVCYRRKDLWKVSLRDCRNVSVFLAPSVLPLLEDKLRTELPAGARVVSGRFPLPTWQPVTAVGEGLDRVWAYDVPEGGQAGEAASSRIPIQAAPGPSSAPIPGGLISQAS
UniProt P04083: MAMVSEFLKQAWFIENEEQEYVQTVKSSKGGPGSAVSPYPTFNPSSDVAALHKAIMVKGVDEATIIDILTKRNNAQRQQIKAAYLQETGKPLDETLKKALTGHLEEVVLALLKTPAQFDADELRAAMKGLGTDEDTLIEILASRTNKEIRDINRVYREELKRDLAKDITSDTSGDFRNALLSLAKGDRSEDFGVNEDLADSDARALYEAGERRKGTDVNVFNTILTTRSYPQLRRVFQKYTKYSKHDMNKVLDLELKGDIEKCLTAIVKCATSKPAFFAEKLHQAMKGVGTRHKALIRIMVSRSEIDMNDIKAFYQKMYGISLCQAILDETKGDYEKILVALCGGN
UniProt P39687: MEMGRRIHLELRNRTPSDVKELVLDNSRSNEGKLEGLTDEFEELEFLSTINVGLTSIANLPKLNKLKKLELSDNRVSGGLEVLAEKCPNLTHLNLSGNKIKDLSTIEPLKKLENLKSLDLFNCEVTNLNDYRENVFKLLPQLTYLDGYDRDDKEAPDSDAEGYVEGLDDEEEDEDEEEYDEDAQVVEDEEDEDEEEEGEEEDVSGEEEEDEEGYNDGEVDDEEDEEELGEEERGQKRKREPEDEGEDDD
UniProt Q9NRW3: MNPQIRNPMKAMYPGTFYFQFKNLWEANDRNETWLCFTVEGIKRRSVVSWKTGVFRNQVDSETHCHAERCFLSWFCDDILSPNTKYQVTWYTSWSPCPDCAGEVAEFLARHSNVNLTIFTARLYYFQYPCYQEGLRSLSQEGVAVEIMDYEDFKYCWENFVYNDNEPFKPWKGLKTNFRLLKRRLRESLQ
UniProt Q8IV38: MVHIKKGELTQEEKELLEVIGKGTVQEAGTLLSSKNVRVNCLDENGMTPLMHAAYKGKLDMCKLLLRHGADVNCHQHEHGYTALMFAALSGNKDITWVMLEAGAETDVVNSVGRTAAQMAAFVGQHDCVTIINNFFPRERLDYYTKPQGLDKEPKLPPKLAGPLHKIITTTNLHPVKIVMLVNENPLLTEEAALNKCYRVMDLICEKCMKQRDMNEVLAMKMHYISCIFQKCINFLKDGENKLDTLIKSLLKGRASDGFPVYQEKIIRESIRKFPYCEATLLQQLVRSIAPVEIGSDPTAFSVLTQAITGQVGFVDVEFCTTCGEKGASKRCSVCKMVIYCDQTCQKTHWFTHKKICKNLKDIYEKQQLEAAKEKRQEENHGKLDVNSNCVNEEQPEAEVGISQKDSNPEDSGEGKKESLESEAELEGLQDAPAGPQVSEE
UniProt Q96GX9: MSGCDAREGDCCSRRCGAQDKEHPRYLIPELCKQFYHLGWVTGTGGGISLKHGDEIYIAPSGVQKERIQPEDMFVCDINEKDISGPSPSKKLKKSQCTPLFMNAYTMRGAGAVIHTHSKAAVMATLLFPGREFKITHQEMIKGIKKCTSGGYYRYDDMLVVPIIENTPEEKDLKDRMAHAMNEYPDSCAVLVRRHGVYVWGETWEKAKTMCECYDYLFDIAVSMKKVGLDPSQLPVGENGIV

Legend:
Assay in all cases: log2 fold change, soluble protein after heating vs DMSO (PISA); higher = thermal stabilisation; K562 cells, 10 uM, 30 min; active = over 0.2 and 3.5 SD of the protein, either way, in both replicates (recomputed)
[1] = compound: C#Cc1cccc(Nc2ncnc3cc(OCCOC)c(OCCOC)cc23)c1 [erlotinib]
Summary of the method: (§1)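 Soluble protein was quantified by TMTpro 16plex LC-MS/MS after channel sums were equalised. It was obtained as the supernatant after 21,000xg for 90 min from pooled aliquots of K562 cells (2×10^6 cells/mL, 10 μM compound, 30 min) heated for 3 min across 48°C-58°C and extracted in PBS with 0.5% NP-40 at 4°C. Thermal stability values are relative to control samples and come from duplicates. They are given as log2 fold changes.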

[2] = compound: C/C(=N\NC(=O)C1=CC(=CC=C1)S(=O)(=O)N2CCOCC2)/C3=C(C=CC(=C3)Cl)O
Summary of the method: as §1

[3] = compound: C1=CC(=C(C=C1Cl)C2=NC3=NC=CN=C3C(=N2)NC4=CC=NC=C4)F
Summary of the method: as §1

[4] = compound: C1=CC(=CC=C1C2=NC3=C(N2)C=C(C=C3)C(=O)N)OC4=CC=C(C=C4)Cl
Summary of the method: as §1

[5] = compound: C1=CC2=C(C=CC(=C2)/C=C\3/C(=O)NC(=NCC4=CC=CS4)S3)N=C1
Summary of the method: as §1

[6] = compound: C1=CC2=NC=CN=C2C=C1/C=C/3\C(=O)NC(=O)S3
Summary of the method: as §1

[7] = compound: C1=CC=C(C=C1)C2=NC(=C(N2)C3=CC=NC=C3)C4=CC(=C(C=C4)Cl)O
Summary of the method: as §1

[8] = compound: C1=CC=C2C(=C1)C3=NNC4=CC=CC(=C43)C2=O
Summary of the method: as §1

[9] = compound: C1CCN(C1)C(=O)NC2=CC=CC(=C2)NC3=NC=C(C(=N3)NCCC4=CN=CN4)Br
Summary of the method: as §1

[10] = compound: C1CN(CCC1(CC2=CC=C(C=C2)Cl)N)C3=NC=NC4=C3C=CN4
Summary of the method: as §1

[11] = compound: C1COCCN1CCN2C3=CC=CC=C3N=C2NC(=O)C4=CC(=CC=C4)[N+](=O)[O-] [IRAK-1-4 Inhibitor I]
Summary of the method: as §1

[12] = compound: C=CC(=O)N1CCC[C@@H](n2nc(-c3ccc(Oc4ccccc4)cc3)c3c(N)ncnc32)C1 [ibrutinib]
Summary of the method: as §1

[13] = compound: CC(=O)c1cnc2ccc(-c3cc(Cl)c(O)c(Cl)c3)nc2c1N[C@H]1CC[C@H](CN(C)C)CC1
Summary of the method: as §1

[14] = compound: CC(C)(C)Cn1c(N)nc2ccc(-c3[nH]c(C(C)(C)C)nc3-c3ccc(F)cc3)nc21 [ralimetinib]
Summary of the method: as §1

[15] = compound: CC(C)(O)CC(=O)NCCn1ccc2ncnc(Nc3ccc(Oc4cccc(C(F)(F)F)c4)c(Cl)c3)c21
Summary of the method: as §1

[16] = compound: CC(C)C1=C2N=C(C=C(N2N=C1)NCC3=CC=CC=C3)NCCCCCCN
Summary of the method: as §1

[17] = compound: CC(C)C[C@@H](C=O)NC(=O)[C@H](CC(C)C)NC(=O)[C@H](CC(C)C)NC(=O)OCc1ccccc1
Summary of the method: as §1

[18] = compound: CC(C)N(C[C@H]1O[C@@H](n2cnc3c(N)ncnc32)[C@H](O)[C@@H]1O)[C@H]1C[C@@H](CCc2nc3cc(C(C)(C)C)ccc3[nH]2)C1 [pinometostat]
Summary of the method: as §1

[19] = compound: CC1=C(C(CC(=O)N1)C2=CC=C(C=C2)C(F)(F)F)C(=O)NC3=C(C=C4C(=C3)C=NN4)F
Summary of the method: as §1

[20] = compound: CC1=C(C2=C(C=C1)C(=O)C3=CC=CC=C3N2CCCN)C
Summary of the method: as §1

Measured: log2 fold change

ANKRD28 (UniProt O15084)
inactive: [1] -0.023 | [2] 0.013 | [3] 0.044 | [4] -0.007 | [5] 0.028 | [6] 0.006 | [7] 0.038 | [8] -0.049 | [9] 0.007 | [10] -0.009 | [11] 0.012 | [12] 0.011 | [13] -0.081 | [14] 0.013 | [15] -0.022 | [16] 0.005 | [17] -0.045 | [18] 0.029 | [19] 0.042 | [20] -0.012

ANO10 (UniProt Q9NW15)
inactive: [1] -0.08 | [2] 0.076 | [3] 0.01 | [4] -0.01 | [5] 0.03 | [6] 0.013 | [7] 0.02 | [8] 0 | [9] -0.009 | [10] 0.019 | [11] 0.023 | [12] -0.066 | [13] -0.068 | [14] -0.051 | [15] -0.046 | [16] -0.129 | [17] -0.007 | [18] -0.05 | [19] -0.059 | [20] -0.006

APOE (UniProt P02649)
inactive: [1] -0.021 | [2] 0.011 | [3] -0.051 | [4] -0.052 | [5] -0.007 | [6] -0.038 | [7] -0.007 | [8] -0.077 | [9] -0.048 | [10] 0.011 | [11] -0.015 | [12] 0.175 | [13] -0.008 | [14] -0.008 | [15] 0.187 | [16] 0.059 | [17] 0.009 | [18] -0.057 | [19] -0.049 | [20] -0.08

AP1S1 (UniProt P61966)
inactive: [1] 0.009 | [2] 0.07 | [3] 0 | [4] -0.013 | [5] 0.006 | [6] 0.054 | [7] -0.022 | [8] -0.017 | [9] 0.086 | [10] -0.088 | [11] 0.001 | [12] -0.038 | [13] 0.013 | [14] 0.029 | [15] -0.02 | [16] -0.038 | [17] 0.034 | [18] 0.021 | [19] -0.061 | [20] 0.004

ARG2 (UniProt P78540)
inactive: [1] -0.036 | [2] 0.025 | [3] 0.002 | [4] 0.018 | [5] 0.06 | [6] 0.061 | [7] -0.009 | [8] 0.004 | [9] 0.091 | [10] 0.054 | [11] 0.09 | [12] 0.025 | [13] 0.016 | [14] -0.013 | [15] -0.015 | [16] -0.009 | [17] 0.002 | [18] -0.068 | [19] 0.012 | [20] -0.052

APOOL (UniProt Q6UXV4)
inactive: [1] 0.013 | [2] -0.025 | [3] 0.032 | [4] 0.013 | [5] -0.004 | [6] 0.018 | [7] -0.011 | [8] -0.004 | [9] 0.017 | [10] 0.082 | [11] 0.08 | [12] 0.041 | [13] 0.032 | [14] -0.019 | [15] -0.009 | [16] 0.086 | [17] -0.012 | [18] 0.015 | [19] -0.011 | [20] -0.016

ARIH1 (UniProt Q9Y4X5)
inactive: [1] 0 | [2] -0.04 | [3] 0.082 | [4] -0.026 | [5] 0.051 | [6] 0.007 | [7] -0.038 | [8] -0.041 | [9] 0.008 | [10] 0.036 | [11] 0.052 | [12] 0.005 | [13] 0.043 | [14] -0.061 | [15] -0.016 | [16] 0.034 | [17] -0.01 | [18] -0.002 | [19] 0.069 | [20] 0.002

ANTXR2 isoform 4 (UniProt P58335)
inactive: [1] -0.004 | [2] 0.001 | [3] -0.009 | [4] 0.018 | [5] 0 | [6] 0.032 | [7] 0.008 | [8] -0.035 | [9] -0.017 | [10] 0.038 | [11] 0.092 | [12] 0.026 | [13] -0.048 | [14] -0.085 | [15] 0.055 | [16] 0.075 | [17] 0.044 | [18] -0.021 | [19] -0.011 | [20] -0.038

Quoted at random: two entries already listed.
AP1S1 (UniProt P61966)
inactive: [1] 0.009 | [2] 0.07 | [3] 0 | [4] -0.013 | [5] 0.006 | [6] 0.054 | [7] -0.022 | [8] -0.017 | [9] 0.086 | [10] -0.088 | [11] 0.001 | [12] -0.038 | [13] 0.013 | [14] 0.029 | [15] -0.02 | [16] -0.038 | [17] 0.034 | [18] 0.021 | [19] -0.061 | [20] 0.004

ARIH1 (UniProt Q9Y4X5)
inactive: [1] 0 | [2] -0.04 | [3] 0.082 | [4] -0.026 | [5] 0.051 | [6] 0.007 | [7] -0.038 | [8] -0.041 | [9] 0.008 | [10] 0.036 | [11] 0.052 | [12] 0.005 | [13] 0.043 | [14] -0.061 | [15] -0.016 | [16] 0.034 | [17] -0.01 | [18] -0.002 | [19] 0.069 | [20] 0.002

Carrying on:

ANXA3 (UniProt P12429)
inactive: [1] -0.019 | [2] 0.049 | [3] 0.014 | [4] 0 | [5] 0.081 | [6] 0.035 | [7] -0.023 | [8] 0.016 | [9] -0.007 | [10] 0.081 | [11] 0.043 | [12] 0.039 | [13] -0.024 | [14] -0.031 | [15] -0.007 | [16] 0.019 | [17] 0.032 | [18] 0.015 | [19] 0.001 | [20] 0.097

APOO (UniProt Q9BUR5)
inactive: [1] 0.038 | [2] 0.039 | [3] 0.102 | [4] -0.015 | [5] -0.04 | [6] 0.032 | [7] -0.049 | [8] -0.065 | [9] 0.011 | [10] 0.008 | [11] 0.026 | [12] -0.006 | [13] 0.003 | [14] -0.026 | [15] -0.058 | [16] -0.053 | [17] -0.031 | [18] -0.029 | [19] -0.012 | [20] -0.006

ANTKMT (UniProt Q9BQD7)
inactive: [1] 0.121 | [2] 0.194 | [3] 0.173 | [4] -0.046 | [5] 0.03 | [6] -0.143 | [7] 0.043 | [8] 0.061 | [9] 0.24 | [10] -0.012 | [11] 0.068 | [12] 0.086 | [13] -0.074 | [14] -0.204 | [15] -0.051 | [16] -0.108 | [17] 0.05 | [18] -0.204 | [19] -0.05 | [20] 0.154

ANXA1 (UniProt P04083)
inactive: [1] 0.043 | [2] 0.1 | [3] 0.138 | [4] -0.05 | [5] 0.004 | [6] 0.001 | [7] 0.05 | [8] 0.058 | [9] 0.026 | [10] -0.097 | [11] -0.049 | [12] -0.042 | [13] -0.001 | [14] 0.02 | [15] -0.119 | [16] -0.156 | [17] 0.008 | [18] -0.01 | [19] 0.019 | [20] -0.012

ANP32A (UniProt P39687)
inactive: [1] -0.005 | [2] 0.019 | [3] 0.092 | [4] 0.009 | [5] -0.038 | [6] -0.001 | [7] 0.056 | [8] 0.017 | [9] 0.017 | [10] 0.038 | [11] -0.022 | [12] -0.026 | [13] -0.006 | [14] 0 | [15] -0.051 | [16] 0.008 | [17] -0.054 | [18] -0.132 | [19] 0.034 | [20] -0.11

APOBEC3C (UniProt Q9NRW3)
inactive: [1] -0.097 | [2] -0.155 | [3] -0.239 | [4] 0.134 | [5] -0.066 | [6] 0.019 | [7] -0.068 | [8] 0.026 | [9] 0.11 | [10] -0.121 | [11] -0.072 | [12] 0.073 | [13] 0.019 | [14] 0.117 | [15] 0.064 | [16] -0.006 | [17] 0.188 | [18] 0.338 | [19] -0.039 | [20] -0.262

ANKMY2 (UniProt Q8IV38)
inactive: [1] 0.01 | [2] 0.047 | [3] 0.044 | [4] 0.009 | [5] 0.005 | [6] 0.014 | [7] 0 | [8] 0.002 | [9] -0.024 | [10] -0.028 | [11] -0.003 | [12] 0.003 | [13] -0.014 | [14] 0.049 | [15] -0.042 | [16] -0.028 | [17] -0.034 | [18] -0.012 | [19] 0.002 | [20] 0.035

APIP (UniProt Q96GX9)
inactive: [1] -0.097 | [2] 0.006 | [3] 0.025 | [4] -0.004 | [5] 0.035 | [6] 0.085 | [7] 0.003 | [8] 0.011 | [9] 0.006 | [10] 0.046 | [11] 0.05 | [12] 0.033 | [13] 0.012 | [14] -0.033 | [15] -0.045 | [16] 0.073 | [17] 0.034 | [18] -0.046 | [19] 0.046 | [20] 0.024
